# In article PMC11980367:
# The chains behind the UniProt entries cited, without tags or fusion partners.
# UniProt O89090: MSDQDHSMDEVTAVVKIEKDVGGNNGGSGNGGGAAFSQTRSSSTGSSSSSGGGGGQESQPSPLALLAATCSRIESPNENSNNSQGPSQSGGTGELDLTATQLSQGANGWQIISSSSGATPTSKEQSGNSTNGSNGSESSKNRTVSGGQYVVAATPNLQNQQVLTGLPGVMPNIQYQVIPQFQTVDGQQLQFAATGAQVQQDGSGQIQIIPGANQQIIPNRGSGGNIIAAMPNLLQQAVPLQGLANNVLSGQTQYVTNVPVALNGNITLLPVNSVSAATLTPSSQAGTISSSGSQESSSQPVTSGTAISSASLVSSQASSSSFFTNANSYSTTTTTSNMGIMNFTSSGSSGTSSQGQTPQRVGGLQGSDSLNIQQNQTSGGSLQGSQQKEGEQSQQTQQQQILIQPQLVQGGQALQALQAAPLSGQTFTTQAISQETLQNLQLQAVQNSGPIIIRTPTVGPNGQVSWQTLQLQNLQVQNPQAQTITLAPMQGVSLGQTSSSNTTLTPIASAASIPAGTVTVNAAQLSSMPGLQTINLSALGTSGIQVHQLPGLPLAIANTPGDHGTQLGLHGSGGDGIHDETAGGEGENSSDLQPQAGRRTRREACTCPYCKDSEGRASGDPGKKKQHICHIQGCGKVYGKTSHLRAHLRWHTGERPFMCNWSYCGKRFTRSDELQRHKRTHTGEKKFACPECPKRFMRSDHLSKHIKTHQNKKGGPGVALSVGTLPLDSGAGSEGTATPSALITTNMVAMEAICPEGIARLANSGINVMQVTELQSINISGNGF
# Results are given in words; binding and its absence hold for the method and conditions named. Binding seen in cells or lysates may run through a third protein. Some results given as binding are weak or reduced against the parent protein; the word gives no strength. Where a sequence is shown, tags or fusion partners need not be part of it.
# B1: Myc-tagged mouse heparanase (mHPSE-V5/His with an added N-terminal Myc tag) (enzyme, UniProt Q6YGZ1 28-535)
# chain: DDVVDLEFYTKRPLRSVSPSFLSITIDASLATDPRFLTFLGSPRLRALARGLSPAYLRFGGTKTDFLIFDPDKEPTSEERSYWKSQVNHDICRSEPVSAAVLRKLQVEWPFQELLLLREQYQKEFKNSTYSRSSVDMLYSFAKCSGLDLIFGLNALLRTPDLRWNSSNAQLLLDYCSSKGYNISWELGNEPNSFWKKAHILIDGLQLGEDFVELHKLLQRSAFQNAKLYGPDIGQPRGKTVKLLRSFLKAGGEVIDSLTWHHYYLNGRIATKEDFLSSDVLDTFILSVQKILKVTKEITPGKKVWLGETSSAYGGGAPLLSNTFAAGFMWLDKLGLSAQMGIEVVMRQVFFGAGNYHLVDENFEPLPDYWLSLLFKKLVGPRVLLSRVKGPDRSKLRVYLHCTNVYHPRYQEGDLTLYVLNLHNVTKHLKVPPPLFRKPVDTYLLKPSGPDGLLSKSVQLNGQILKMVDEQTLPALTEKPLPAGSALSLPAFSYGFFVIRNAKIAACI
# B2: Myc-tagged human heparanase (hHPSE-V5/His with an added N-terminal Myc tag) (enzyme, UniProt Q9Y251 36-543)
# chain: QDVVDLDFFTQEPLHLVSPSFLSVTIDANLATDPRFLILLGSPKLRTLARGLSPAYLRFGGTKTDFLIFDPKKESTFEERSYWQSQVNQDICKYGSIPPDVEEKLRLEWPYQEQLLLREHYQKKFKNSTYSRSSVDVLYTFANCSGLDLIFGLNALLRTADLQWNSSNAQLLLDYCSSKGYNISWELGNEPNSFLKKADIFINGSQLGEDFIQLHKLLRKSTFKNAKLYGPDVGQPRRKTAKMLKSFLKAGGEVIDSVTWHHYYLNGRTATKEDFLNPDVLDIFISSVQKVFQVVESTRPGKKVWLGETSSAYGGGAPLLSDTFAAGFMWLDKLGLSARMGIEVVMRQVFFGAGNYHLVDENFDPLPDYWLSLLFKKLVGTKVLMASVQGSKRRKLRVYLHCTNTDNPRYKEGDLTLYAINLHNVTKYLRLPYPFSNKQVDKYLLRPLGPHGLLSKSVQLNGLTLKMVDDQTLPPLMEKPLRPGSSLGLPAFSYSFFVIRNAKVAACI
# Molecular target: mouse SP1 transcription factor (mouse) (UniProt O89090)
# Assay: co-IP; reciprocal: 293T cells co-transfected with mSP1 and Myc-tagged mHPSE or hHPSE; NP-40 lysate; precipitated with mouse anti-SP1 on protein A Dynabeads; blotted for HPSE (Fig. S6)
row,Binder,binding
1,B1,binds
2,B2,no binding
